According to publication PMC11088704, “Structural basis for the regulation of plant transcription factor WRKY33 by the VQ protein SIB1” (Communications Biology, 2024):
No constants are given. Whether binding was seen depends on the method and setting.

By UniProt entry, the sequences of proteins in these tests, tags left out.
UniProt Q8S8P5: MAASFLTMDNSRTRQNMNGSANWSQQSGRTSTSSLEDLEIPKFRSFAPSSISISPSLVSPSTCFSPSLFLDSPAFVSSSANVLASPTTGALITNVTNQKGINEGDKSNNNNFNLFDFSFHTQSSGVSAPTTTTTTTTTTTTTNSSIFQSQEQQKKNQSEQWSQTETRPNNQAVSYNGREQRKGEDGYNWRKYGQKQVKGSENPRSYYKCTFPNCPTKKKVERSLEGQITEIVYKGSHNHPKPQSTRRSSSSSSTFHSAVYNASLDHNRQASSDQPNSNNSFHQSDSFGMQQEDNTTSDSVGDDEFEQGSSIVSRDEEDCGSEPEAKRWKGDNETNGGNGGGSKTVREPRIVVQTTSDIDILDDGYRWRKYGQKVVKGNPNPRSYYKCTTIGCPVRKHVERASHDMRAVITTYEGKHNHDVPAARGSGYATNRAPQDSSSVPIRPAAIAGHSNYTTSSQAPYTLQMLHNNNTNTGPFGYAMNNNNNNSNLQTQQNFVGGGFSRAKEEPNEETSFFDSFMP

Biological target: WRKY33 C-terminal DNA-binding domain (WRKY33_C) (Arabidopsis thaliana) (UniProt Q8S8P5)
Experiment: NMR titration; 2D 1H-15N HSQC of 15N-labeled WRKY33_C (or its mutants), 0.1 mM, with SIB1 or SIB1 peptides added at 2:1 (5:1 also for SIB1^40–60 and SIB1^55–69); 30 mM MES pH 6.0, 50 mM NaCl, 20 uM ZnSO4, 10% D2O, 25 °C; both purified

Binder: FRELVQELTG [SIB1^58–67 decapeptide (VQ motif)]
- binding: no binding
